{"source": "paper PMC11637191", "about": "“The pH-dependence of efflux ratios determined with bidirectional transport assays across cellular monolayers” (International Journal of Pharmaceutics: X, 2024)", "origin": "cited, not measured here", "test_system": "MDCK-MDR1 cells", "conditions": "with inhibitor, pH 7.4 iso-method; ref Obradovic et al. (2007); cited from earlier work"}
{"smiles": "CN1CCC[C@@H]1CCO[C@](C)(c1ccccc1)c1ccc(Cl)cc1", "note": "[Clemastine]", "values": [{"measurement": "Papp, inhibitor", "value": 49.5, "unit": "×10⁻⁶ cm/s"}]}
